In patent US20130078268A1, “VACCINE COMPOSITIONS AND METHODS OF USE THEREOF” (priority 2010, published 2013):
At least one peptide structure holds a part that was inferred or is arguable (an end, a ring closure or a residue). Where a SMILES comes first, the peptide text is derived from it. [ ]: non-standard residue; d: D form. The star is where a group is joined. X1 = CCCCCCCCCCCCCCCC(=O)NC(CSCC(COC(=O)CCCCCCCCCCCCCCC)OC(=O)CCCCCCCCCCCCCCC)C(=O)*; pGlu = O=C1CC[C@@H](C(=O)O)N1

Legend:
[1] = Life span of immunised mice under normal ageing; format: in vivo; settings: female BALB/c mice of 16 weeks of age; three intraperitoneal injections of 100 μg conjugate at 3-week intervals; p<0.05 vs control (540±21 days)
[2] = target: neuropeptide head activator (NHA) (Homo sapiens, UniProt P69208); assay: Heart hypertrophy induced by injection of neuropeptide head activator in immunised mice; format: in vivo; settings: female BALB/c mice; three intraperitoneal injections of 100 μg conjugate at 3-week intervals, then single injection of NHA; compared to the control

## CCCCCCCCCCCCCCCC(=O)NC(CSCC(COC(=O)CCCCCCCCCCCCCCC)OC(=O)CCCCCCCCCCCCCCC)C(=O)NCCCC[C@H](NC(=O)[C@H](CO)NC(=O)CNC(=O)CNC(=O)[C@@H]1CCCN1C(=O)[C@@H]1CCCN1C(=O)[C@@H]1CCC(=O)N1)C(=O)N[C@H](C(=O)N[C@H](C(=O)N[C@@H](CC(C)C)C(=O)N[C@@H](Cc1ccccc1)C(=O)O)[C@@H](C)CC)C(C)C (stereo partly drawn) [conjugate 7, pGlu-Pro-Pro-Gly-Gly-Ser-Lys(Pam3Cys)-Val-Ile-Leu-Phe] ([pGlu]PPGGSK(X1)VILF-OH)
[1]
  mean life span: 780 ± 38 days
[2]
  hypertrophy of muscular and connective tissue components of the myocardium and myocardium wall vessels: completely prevent the hypertrophy
